Data as given in PubChem BioAssay AID504834 (National Center for Advancing Translational Sciences (NCATS), 2011).
The whole screen tested about 320,000 compounds, of which about 22,000 (6.9%) were called active. The inconclusive results got no clear call from the source; some entries with a clear call stand among them for comparison. The call rests on the fitted dose curve; in most records, active means well fitted inhibition curve with a large enough effect; inconclusive means small, poorly fitted or top-dose-only effect, or another doubt; inactive means no such curve, though single readings can be large or run the other way. Where the call is inconclusive, the potency comes from a doubtful curve fit.

assay: Primary qHTS for delayed death inhibitors of the malarial parasite plastid, 96 hour incubation; settings: P. falciparum luciferase reporter growth; series mostly up to 28.7 µM
How it was run: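 P. falciparum expressing integrated firefly luciferase, in erythrocytes at 2% hematocrit, 0.05% parasitemia, incubated with compounds 96 h at 37 C, 5% CO2. Growth inhibition read as loss of luminescence; two-generation exposure targets delayed-death apicoplast inhibitors.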
Potency means the concentration at half of the fitted maximal effect.

| Structure (SMILES) | Potency |
| --- | --- |
| CC(Sc1nc(NCc2ccccc2)nc(N(C)C)n1)C(=O)Nc1ccccc1 (stereo not drawn) | active: 5.22 µM |
| CCOC(=O)c1c(C)c(C(=O)NCc2ccccn2)c(C)n1C | inconclusive: 9.28 µM [inhibitor, partial curve, poor fit] |
| CCN(c1ccccc1)S(=O)(=O)c1ccc(C(=O)Nc2ccc(C)cn2)cc1 | inconclusive: 18.5 µM [inhibitor, single point] |
| CN(C)C(CN1C(=O)C2CC=CCC2C1=O)c1cn(C)c2ccccc12 (stereo not drawn) | inconclusive: 11.7 µM [inhibitor, partial curve] |
| C=CCN1C(=O)/C(=C\c2cccs2)C(C(=O)OC)=C1C | inconclusive: 11.7 µM [inhibitor, single point] |
| Cc1cc(/C=C(\C#N)C(=O)NCc2ccco2)c(C)[nH]1 | inactive |
| COc1ccc(-c2nsc3c(SCC(=O)Nc4cc(C)ccc4C)ncnc23)cc1 | inconclusive: 0.0329 µM [inhibitor, full curve, poor fit] |
| O=C(Cc1ccccc1)Nc1ccccc1C(=O)N1CCCCCC1 | inconclusive: 5.86 µM [inhibitor, single point] |
| CCOC(=O)c1[nH]c2ccc(OC)cc2c1NC(=S)N1CCN(c2cccc(Cl)c2)CC1 | inconclusive: 1.65 µM [inhibitor, full curve, poor fit] |
| COc1ccc(Oc2nc(Oc3ccc(OC)cc3)nc(Oc3ccc(OC)cc3)n2)cc1 | inactive |
| Cc1ccc(C(=O)Nc2ccc(C)c(S(=O)(=O)N3CCOCC3)c2)c(C)c1 | inconclusive: 13.1 µM [inhibitor, partial curve, poor fit] |
| COc1ccc(CC(=O)OCC(=O)c2ccc(OC)cc2)cc1 | inactive |
| Cc1ccc2oc(=O)c3cnn(CC(=O)N4CCN(c5ccccc5)CC4)c3c2c1 | inconclusive: 11.7 µM [inhibitor, single point] |
| Cc1ccc(-n2c(O)c(C=Nc3cc(C)on3)c3ccccc3c2=O)c(C)c1 | inconclusive: 18.5 µM [inhibitor, single point] |
| O=C(c1ccccc1)N1N=C(C(F)(F)F)CC1(O)c1ccccc1O (stereo not drawn) | inconclusive: 18.5 µM [inhibitor, single point] |
| O=C(NCCOc1ccccc1)c1cc(C(=O)NCCOc2ccccc2)cc([N+](=O)[O-])c1 | inconclusive: 18.5 µM [inhibitor, single point] |
| COc1ccc(CCNC(=O)c2cc3c(=O)n4ccccc4nc3n(CCN3CCOCC3)c2=N)cc1 | inconclusive: 2.08 µM [inhibitor, full curve, poor fit] |
| N#C/C(=C\c1c(N2CCN(c3ccccc3)CC2)nc2ccccn2c1=O)C(N)=O | inconclusive: 18.5 µM [inhibitor, single point] |
| COc1ccccc1Nc1nc(N)nc(CN2CC(C)CC(C)C2)n1 (stereo not drawn) | inconclusive: 3.29 µM [inhibitor, partial curve, poor fit] |
| O=C(CN(C(=O)c1csnn1)c1cccc(Cl)c1)NC1CCCCC1 | inconclusive: 6.57 µM [inhibitor, partial curve] |
| CNC(=O)COc1ccc2oc3c(c2c1)CCCC3 | inactive |
| O=C(Nc1ccc2oc(-c3ccncc3)nc2c1)c1ccc([N+](=O)[O-])o1 | inconclusive: 13.1 µM [inhibitor, partial curve] |
| O=C(CSc1nnc2c(Cl)cc(C(F)(F)F)cn12)N(Cc1ccccc1)Cc1ccccc1 | inconclusive: 16.5 µM [inhibitor, single point] |

| Structure (SMILES) | Potency |
| --- | --- |
| Cc1ccc(S(=O)(=O)c2c(C)nn(C(C)(C)C)c2OC(=O)c2cccs2)cc1 | inconclusive: 18.5 µM [inhibitor, single point] |
| COC(=O)C1=C(CS(=O)(=O)c2ccc(OC)c(OC)c2)NC(=O)NC1c1ccc(O)c(OC)c1 (stereo not drawn) | inactive |
| c1ccc(-c2ccc3c(c2)NCCN3)cc1 | inconclusive: 10.4 µM [inhibitor, single point] |
| c1ccc(-c2csc(Nc3cccnc3)n2)nc1 | inactive |
| O=C(COC(=O)c1ccc2ccccc2c1)NCCCc1ccccc1 | inactive |
| O=C(/C=C/NCC(=O)c1ccccc1)c1ccc(Br)cc1 | inconclusive: 13.1 µM [inhibitor, partial curve] |
| COC(=O)COc1ccc(-c2nccc(-c3ccccn3)n2)cc1 | inconclusive: 0.657 µM [inhibitor, partial curve] |
| O=C(C1CCN(CCCc2ccccc2)CC1)N(CCc1ccccc1)Cc1ccccc1 | inactive |
| CCCCCCCCCC(=O)O[C@H]1CC[C@H]2[C@@H]3CCC4=CC(=O)CC[C@]4(C)[C@H]3CC[C@]12C | active: 8.49 µM |
| COc1ccc(NC(=O)CCn2c(=O)c3cccn3c3ccccc32)c(OC)c1 | active: 11.7 µM |
| CCOc1ccc(Br)cc1C1C(C(=O)OC)=C(N)Oc2cc(N(C)C)ccc21 (stereo not drawn) | inconclusive: 0.465 µM [inhibitor, full curve, poor fit] |
| COc1ccccc1CCC(=O)Nc1ccc(OC)c(S(=O)(=O)N2CCOCC2)c1 | inconclusive: 9.28 µM [inhibitor, single point] |
| COc1ccc(-c2nc(-c3ccncc3)no2)cc1 | inactive |
| C/C(=N\NC(=O)c1cc(-c2ccncc2)nc2ccccc12)c1ccc(N2CCOCC2)cc1 | inconclusive: 16.5 µM [inhibitor, single point] |
| O=C(NCCC(c1ccccc1)c1ccco1)c1cccs1 (stereo not drawn) | inconclusive: 18.5 µM [inhibitor, single point] |
| O=C(CCc1nc2ccccc2[nH]1)Nc1ccc2c(c1)OCCO2 | active: 1.04 µM |
| COC(=O)CN1CCN(C(=O)c2ccc(F)cc2)c2ccccc2C1 | inconclusive: 13.1 µM [inhibitor, partial curve, poor fit] |
| CCCNC(=O)NC(=O)CN1C(=O)NC(C)(c2ccc(C)cc2)C1=O (stereo not drawn) | active: 13.1 µM |
| Cc1ccc(Sc2c(C)[nH]n(C(C)(C)C)c2=O)cc1 | inactive |
| Cc1nnc(NC(=O)CSc2ccc3nnc(-c4cccnc4)n3n2)s1 | inconclusive: 0.0033 µM [inhibitor, full curve, poor fit] |
| COc1ccc(S(=O)(=O)Nc2c(NC3CCCCC3)c3ccccc3oc2=O)cc1 | inconclusive: 18.5 µM [inhibitor, single point] |
| CC(C)Cn1c(=O)c(-[n+]2ccccc2)c([O-])c2ccccc21 | active: 13.1 µM |
| CC(C)N(C)Cc1nnnn1CC(=O)NCCc1cccc(C(F)(F)F)c1 | inconclusive: 18.5 µM [inhibitor, single point] |

| Structure (SMILES) | Potency |
| --- | --- |
| COc1cccc(C(C(=O)NC2CCCCC2)N(Cc2ccco2)C(=O)c2ccccn2)c1 (stereo not drawn) | inconclusive: 0.117 µM [inhibitor, full curve, poor fit] |
| COc1ccc(C(=O)NCc2cc(C)nc3ccccc23)cc1 | inactive |
| CC1(CCc2ccccc2)NC(=O)N(CC(=O)Nc2ccc(S(N)(=O)=O)cc2)C1=O (stereo not drawn) | inconclusive: 10.4 µM [inhibitor, single point] |
| CCNC(=O)/C(C#N)=C/c1c(N2CCN(c3ccc(OC)cc3)CC2)nc2c(C)cccn2c1=O | inconclusive: 11.7 µM [inhibitor, single point] |
| CCCCC1CCC(/C(N)=N/O)CC1 (stereo not drawn) | inconclusive: 18.5 µM [inhibitor, single point] |
| Cc1cc(/C=N/Nc2ncnc(N)c2[N+](=O)[O-])c(C)n1-c1ccccc1 | inactive |
| Cc1ccc(SC(C)C(=O)O/N=C(\N)c2ccncc2)cc1 (stereo not drawn) | inconclusive: 18.5 µM [inhibitor, single point] |
| CCC1=Nc2cc(C(=O)NCc3cccnc3)ccc2Sc2ccc(C)cc21 | inconclusive: 11.7 µM [inhibitor, single point] |
| Cc1ccc(SC(C)C(=O)NCc2cccnc2)cc1 (stereo not drawn) | inconclusive: 0.0165 µM [inhibitor, full curve, poor fit] |
| COc1ccccc1NC(=O)C(CCS(C)(=O)=O)N1C(=O)c2ccccc2C1=O (stereo not drawn) | inconclusive: 18.5 µM [inhibitor, single point] |
| CC(C(=O)Oc1ccc2c(c1)OCO2)N1C(=O)c2ccccc2C1=O (stereo not drawn) | inactive |
| COc1cc2oc(=O)c(Br)c(C)c2c(OC)c1OC | inconclusive: 11.7 µM [inhibitor, partial curve] |
| Cc1nc(Nc2cccc(C(C)O)c2)c2nnn(Cc3ccc(F)cc3)c2n1 (stereo not drawn) | inconclusive: 1.65 µM [inhibitor, full curve, poor fit] |
| CCNc1ccc2c(Cl)cc(=O)oc2c1 | inconclusive: 2.33 µM [inhibitor, partial curve, poor fit] |
| COc1ccc(C2CC(=O)N(CCCN(C)CCc3ccc(OC)c(OC)c3)C2)cc1 (stereo not drawn) | inconclusive: 18.5 µM [inhibitor, single point] |
| CCOC(=O)c1[nH]c2c(c1-c1ccccc1)C(=O)CC(c1ccc(OC)c(OC)c1)C2 (stereo not drawn) | active: 10.4 µM |
| COc1ccc(C(=O)NCc2cn3ccsc3n2)cc1OC | inactive |
| O=C(COc1cccc(-n2cnnn2)c1)NC1CCCCC1 | inconclusive: 11.7 µM [inhibitor, single point] |
| O=C(CCN1C(=O)C2CC=CCC2C1=O)NC1CCCCC1 (stereo not drawn) | inactive |
| CCCOc1cccc(C(=O)N(Cc2ccc(OC)c(OC)c2)C2CCS(=O)(=O)C2)c1 (stereo not drawn) | inconclusive: 9.28 µM [inhibitor, single point] |
| COC1CCCN(Cc2c(C(=O)N3CCc4ccccc4C3)nc3ccc(Cl)cn23)C1 (stereo not drawn) | inconclusive: 16.5 µM [inhibitor, single point] |
| CCn1ncc(/C=C/C(=O)c2ccccc2)c1C | inactive |

Some of the entries so far, with each value named.
C=CCN1C(=O)/C(=C\c2cccs2)C(C(=O)OC)=C1C
  Potency: inconclusive: 11.7 µM [inhibitor, single point]
Cc1cc(/C=C(\C#N)C(=O)NCc2ccco2)c(C)[nH]1
  Potency: inactive

Already shown: an excerpt of the list.

| Structure (SMILES) | Potency |
| --- | --- |
| COc1ccc(C(=O)NCc2cc(C)nc3ccccc23)cc1 | inactive |
| CC1(CCc2ccccc2)NC(=O)N(CC(=O)Nc2ccc(S(N)(=O)=O)cc2)C1=O (stereo not drawn) | inconclusive: 10.4 µM [inhibitor, single point] |
| CCNC(=O)/C(C#N)=C/c1c(N2CCN(c3ccc(OC)cc3)CC2)nc2c(C)cccn2c1=O | inconclusive: 11.7 µM [inhibitor, single point] |
